Source: PMC12040169 (PLOS Biology, 2025)
The list shows a part of the results.

Test system: T1, CTL2-GFP (C. trachomatis L2/434/Bu, GFP-expressing)
T1 construct: L2/434/Bu, GFP-expressing
Parameters: species or system HeLa; Intracellular C. trachomatis growth in HeLa cells, bulk GFP fluorescence relative to DMSO
Settings: bulk GFP, single well; 28.5 h, 10 µM; inhibitor

Row | SMILES | % of control remaining [%]
1 | CCc1nccn1CC(=O)NCC(C)n1nc(C)cc1C (stereo not shown) [CBK281638] | 135.135
2 | COc1ccc2c(c1)cc(C(=O)N1CCCn3cncc3C1)n2C [CBK306516] | 126.148
3 | O=C(Nc1c(F)cccc1F)N(Cc1cc(F)cc(F)c1)CC1CCNCC1 [CBK049795] | 71.084
4 | CCc1noc(CN2CCCC(c3ccc(C(=O)O)cc3)C2)n1 (stereo not shown) [CBK307102] | 108.045
5 | CC1CCCN(c2ccc(NC(=O)c3cccs3)cc2[N+](=O)[O-])C1 (stereo not shown) [CBK266402] | 106.806
6 | Cc1cc(NC(=O)Nc2cccc(Cl)c2C)no1 [CBK288245] | 107.118
7 | CC(C)[C@@H](CO)Nc1cc(-c2cccc(Br)c2)nc2ccnn12 [CBK037117] | 214.325
8 | O=C(Nc1ccc(-c2nc3ccccc3o2)c(O)c1)c1ccc(-c2cccc(Cl)c2)o1 [CBK263422] | 103.659
9 | COC(=O)[C@@H]1CN(C(=O)Nc2ccccc2)CCN1C(=O)C1CCCCC1 [CBK289607] | 133.756
10 | CCN1CC2(CCN(CCCC#N)CC2)c2ccccc21 [CBK136995] | 117.113
11 | COc1cccc2c3c([nH]c12)C1(CCN(CCCC#N)CC1)N(C(C)=O)CC3 [CBK039722] | 118.667
12 | CC(C)n1c(=O)n(CC(=O)N(C)C2CCCCC2)c2cccnc21 [CBK283695] | 125.15
13 | OCCN(Cc1cccnc1)Cc1cccn1-c1cccc(F)c1 [CBK283018] | 141.397
14 | Cn1nc([N+](=O)[O-])nc1Sc1nnnn1-c1ccc(C(=O)O)cc1 [CBK266961] | 101.945
15 | O=c1[nH]c2cccc(O)c2o1 [CBK048613] | 155.733
16 | O=S(=O)(Nc1cccc(Cl)c1)c1ccc(Cl)c(Cl)c1 [CBK044636] | 111.382
17 | Cc1ccc(C(=O)CN2CCC3(CC2)CC(=O)c2cc(Br)ccc2O3)cc1 [CBK162266] | 119.495
18 | CS(=O)(=O)c1nsc(Cl)n1 [CBK007229] | 100.368
19 | COc1ccccc1/C=C/CN1CCNC(=O)C1CC(=O)O (stereo not shown) [CBK269845] | 117.122
20 | CN(C)c1ncnc2[nH]ncc12 [CBK016810] | 92.937
21 | COc1ccc(CN2CCN(S(=O)(=O)c3ccc(Cl)cc3)CC2)cc1OC [CBK264204G] | 86.2824

Row | SMILES | % of control remaining [%]
22 | CCc1cc(C(=O)OC)c(NC(=S)Nc2nc3cc(C)c(C)cc3s2)s1 [CBK267116] | 185.797
23 | O=C(c1cccs1)N(Cc1ccco1)c1ccc(O)cc1 [CBK269256] | 123.573
24 | Cc1nn(CC(=O)N2CCCCC2C)c(=O)c2cc3occc3n12 (stereo not shown) [CBK283622] | 127.733
25 | CC(=O)Nc1ccc(S(=O)(=O)N2CCN(C/C=C/c3ccccc3)CC2)cc1 [CBK261545] | 78.794
26 | CCn1ncc(CN2C3CCC2CC(O)(c2cccc(F)c2)C3)c1C (stereo not shown) [CBK282754] | 127.177
27 | Cc1ccccc1C(=O)NC(=S)Nc1sc2c(c1C#N)CCCC2 [CBK264403] | 100
28 | CC(=O)Nc1ccc(-c2csc(N3CCN(C)CC3)n2)cc1 [CBK305865] | 132.055
29 | C1=C(CN2CCn3nc(CNc4cnccn4)cc3C2)CCCC1 [CBK307406] | 186.266
30 | CC(CC(=O)O)CC(=O)Nc1ccc(C(=O)O)cc1 (stereo not shown) [CBK265560] | 111.387
31 | Cc1ccc(C2=NN(C(=O)CCC(=O)O)C(c3cc4cccc(C)c4[nH]c3=O)C2)cc1 (stereo not shown) [CBK296927] | 103.319
32 | O=C(CNS(=O)(=O)Cc1ccccc1[N+](=O)[O-])Nc1ccc(F)cc1 [CBK042228] | 137.834
33 | COc1cc(C(=O)N2CCC3(CC2)NC(=O)c2cc(C)ccc2O3)cc(OC)c1C [CBK166273] | 125.168
34 | CCN(Cc1ccccc1)Cc1ccco1 [CBK261884] | 110.799
35 | O=C(O)COCc1cc(-c2ccc3c(c2)OCO3)on1 [CBK286883] | 106.616
36 | NC(=O)c1ccccc1NC(=S)NC(=O)c1cc2ccccc2o1 [CBK265633] | 100
37 | O=C(Nc1cccc(OC(=O)c2cc(S(=O)(=O)N3CCCCC3)ccc2Cl)c1)c1ccco1 [CBK262186] | 29.3851
38 | CCN1CCc2cc(-c3cncn3CCCn3nc(C)cc3C)ccc21 [CBK281572] | 105.211
39 | CN(C(=O)CN)c1nc2c(s1)CC(c1ccccc1)CC2 (stereo not shown) [CBK304298C] | 112.806
40 | O=C1NC(=O)C(c2ccccc2)(c2ccccn2)N1 (stereo not shown) [CBK288455] | 103.652
41 | N/C(=N\O)c1ccc(OC(F)(F)F)cc1 [CBK019865] | 142.716
42 | Cc1ccc(-c2csc3c(=O)[nH]c(N4CCCC(C(=O)NCc5cccnc5)C4)nc23)cc1 (stereo not shown) [CBK215546] | 145.903

Row | SMILES | % of control remaining [%]
43 | COc1cc(NC(=O)Nc2ccccc2OC)c(OC)cc1Cl [CBK270329] | 127.633
44 | O=C(NC(Cc1cccs1)c1nccs1)c1cccnc1 (stereo not shown) [CBK285133] | 107.41
45 | CN(C)Cc1ccccc1Cn1cncc1-c1cnn(C)c1 [CBK281764] | 116.555
46 | CCOc1cccc(CNc2nn[nH]n2)c1OCc1ccc(C)cc1 [CBK288127] | 100.334
47 | Cc1nn(Cc2c(F)cccc2Cl)c(C)c1NC(=O)c1cnn2c(C(F)F)cc(-c3ccccc3)nc12 [CBK267634] | 115.427
48 | Nc1nonc1-c1nc2ccccc2o1 [CBK009829] | 143.761
49 | O=C(CCCc1ccccc1)Nc1ccc(F)cc1[N+](=O)[O-] [CBK265446] | 119.294
50 | NC(=O)Cn1cc(CNC2(c3ccccc3)CC2)c2ccccc21 [CBK282776] | 79.8103
51 | O=C(O)CCn1cc(/C=C2\SC(=S)NC2=O)c(-c2cccc(Br)c2)n1 [CBK265287] | 100
52 | CNC(=O)c1sc2ccccc2c1C1CCN(S(=O)(=O)c2ccc(C)c(C)c2)C1 (stereo not shown) [CBK285877] | 109.513
53 | CCOC(=O)c1cc(-c2ccc(OC)cc2)nn1-c1ccc(C(=O)O)cc1 [CBK296133] | 109.972
54 | Cc1cc(C)nc(N2CCC(c3cc(CCOc4ccc(C(F)(F)F)cc4)[nH]n3)C2)n1 (stereo not shown) [CBK286073] | 108.109
55 | O=C1Nc2ccc(C(=O)NCC(O)CO)cc2/C1=C/c1c[nH]c2ncccc12 (stereo not shown) [CBK115363C] | 74.9096
56 | CC(NC(=O)Nc1ccccc1O)(C(F)(F)F)C(F)(F)F [CBK268019] | 77.3459
57 | C#CCn1nnc2ccccc21 [CBK028164] | 95.933
58 | O=[N+]([O-])c1nn(-c2ccc(Cl)cc2)[n+]([O-])c1NCc1ccccn1 [CBK268270] | 85.1097
59 | CC1(C)[C@H]2CC/C(=N/O)[C@]1(C)NC2=O [CBK006513] | 125.833
60 | COc1ccc(CCCC(=O)Nc2cc(N3CCNCC3)ncn2)cc1OC [CBK107856] | 97.9692
61 | Cc1ccc(N2CCN(S(=O)(=O)c3ccc(I)cc3)CC2)c(C)c1 [CBK098562] | 123.699
62 | CC(C)Cc1csc2nc(-c3ccc(Br)cc3)oc(=O)c12 [CBK026692] | 107.369
63 | O=C(Nc1ccccc1C(=O)NCc1ccccc1)c1cccc(F)c1 [CBK269351] | 157.933

Row | SMILES | % of control remaining [%]
64 | Cc1ccc(CN(CCCN2CCOCC2)Cc2ccoc2)o1 [CBK283234] | 132.228
65 | O=C1OCC(O)=C1C(c1ccccc1)C1CC1 (stereo not shown) [CBK010731] | 124.449
66 | CC1(C)Cc2c(c(-c3ccco3)nc3[nH]nc(N)c23)CO1 [CBK009252] | 130.191
67 | CC(C)(C)c1ccc(-c2nc(O)c(CC(=O)O)s2)cc1 [CBK067734] | 143.798
68 | O=C1CCCN1c1ccc(S(=O)(=O)N2CCN(c3ccccn3)CC2)cc1 [CBK268237] | 157.103
69 | O=C(Nc1cc(N2CCCS2(=O)=O)ccc1F)c1cccnc1O [CBK306320] | 90.7343
70 | CCN(CC(=O)N1CCN(Cc2ccc3c(c2)OCO3)CC1)S(=O)(=O)c1ccccc1 [CBK269436] | 100.149
71 | CCCOC1CCCN(C(=O)c2ccc(-c3ccc(Cl)cn3)cc2)C1 (stereo not shown) [CBK306540] | 145.979
72 | CCCc1cc(CNC(=O)c2cc(C3CC3)nn2C)on1 [CBK282048] | 95.4509
73 | S=C(NCCN1CCCCC1)NCc1ccccc1 [CBK263066] | 96.6416
74 | Cc1ncn(Cc2nc(-c3ccsc3)no2)c(=O)c1C [CBK304158] | 118.695
75 | COc1cccc(OCC(=O)Nc2ccc(Cl)cc2C(=O)O)c1 [CBK264208] | 136.886
76 | NCc1ccc(CN(Cc2cccc(Cl)c2)C(=O)NC(c2ccccc2)c2ccccc2)cc1 [CBK046087C] | 54.0897
77 | NS(=O)(=O)c1ccc(CCNCc2ccc3c(c2)OCO3)cc1 [CBK269819C] | 101.179
78 | O=C(NCCc1c[nH]c2ccccc12)c1cccs1 [CBK231038] | 107.66
79 | Cc1ccccc1Nc1nc(-c2ccc([N+](=O)[O-])cc2)nc2ccccc12 [CBK264803] | 109.484
80 | Cc1csc(C(Cc2ccsc2)NC(=O)Cn2cccn2)n1 (stereo not shown) [CBK282831] | 118.686
81 | CC(C)NC(=O)C1CCN(c2nc3ccccc3n2C)CC1 [CBK283986] | 110.697
82 | O=C(OCC#CCSc1nnc(-c2ccccc2)o1)c1ccc([N+](=O)[O-])cc1 [CBK265588] | 100

Exported tab-delimited: part of the list above.
Row	SMILES	% of control remaining [%]
60	COc1ccc(CCCC(=O)Nc2cc(N3CCNCC3)ncn2)cc1OC [CBK107856]	97.9692
61	Cc1ccc(N2CCN(S(=O)(=O)c3ccc(I)cc3)CC2)c(C)c1 [CBK098562]	123.699
62	CC(C)Cc1csc2nc(-c3ccc(Br)cc3)oc(=O)c12 [CBK026692]	107.369
63	O=C(Nc1ccccc1C(=O)NCc1ccccc1)c1cccc(F)c1 [CBK269351]	157.933
64	Cc1ccc(CN(CCCN2CCOCC2)Cc2ccoc2)o1 [CBK283234]	132.228
67	CC(C)(C)c1ccc(-c2nc(O)c(CC(=O)O)s2)cc1 [CBK067734]	143.798
68	O=C1CCCN1c1ccc(S(=O)(=O)N2CCN(c3ccccn3)CC2)cc1 [CBK268237]	157.103
69	O=C(Nc1cc(N2CCCS2(=O)=O)ccc1F)c1cccnc1O [CBK306320]	90.7343
70	CCN(CC(=O)N1CCN(Cc2ccc3c(c2)OCO3)CC1)S(=O)(=O)c1ccccc1 [CBK269436]	100.149
71	CCCOC1CCCN(C(=O)c2ccc(-c3ccc(Cl)cn3)cc2)C1 (stereo not shown) [CBK306540]	145.979
72	CCCc1cc(CNC(=O)c2cc(C3CC3)nn2C)on1 [CBK282048]	95.4509
73	S=C(NCCN1CCCCC1)NCc1ccccc1 [CBK263066]	96.6416
74	Cc1ncn(Cc2nc(-c3ccsc3)no2)c(=O)c1C [CBK304158]	118.695
75	COc1cccc(OCC(=O)Nc2ccc(Cl)cc2C(=O)O)c1 [CBK264208]	136.886
76	NCc1ccc(CN(Cc2cccc(Cl)c2)C(=O)NC(c2ccccc2)c2ccccc2)cc1 [CBK046087C]	54.0897
77	NS(=O)(=O)c1ccc(CCNCc2ccc3c(c2)OCO3)cc1 [CBK269819C]	101.179
78	O=C(NCCc1c[nH]c2ccccc12)c1cccs1 [CBK231038]	107.66
79	Cc1ccccc1Nc1nc(-c2ccc([N+](=O)[O-])cc2)nc2ccccc12 [CBK264803]	109.484
80	Cc1csc(C(Cc2ccsc2)NC(=O)Cn2cccn2)n1 (stereo not shown) [CBK282831]	118.686
82	O=C(OCC#CCSc1nnc(-c2ccccc2)o1)c1ccc([N+](=O)[O-])cc1 [CBK265588]	100
